Laboratory results published in the supplement of paper PMC8728848.
Some of the results follow.

Columns and labels:
Test in all cases: glycan array binding signal (z-score within array); higher = stronger binding
Settings in all cases: glycan notation: IUPAC condensed, linker removed
[1] = biological target: Neu5Ac(a2-6)GlcNAc(b1-4)GlcNAc(b1-4)GlcNAc
In short: (§1)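 Columns mapping to the same glycan were averaged after glycan names were converted to IUPAC-condensed notation. The data come from 3228 arrays in the Consortium for Functional Glycomics database, limited to those with an available protein sequence. Binding is reported as a within-array Z-score averaged across arrays of one protein sequence and across linkers.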

Neu5Ac(a2-8)Neu5Ac = biological target: Neu5Ac(a2-8)Neu5Ac
In short: as §1

[2] = biological target: Neu5Ac(a2-8)Neu5Ac(a2-3)Gal(b1-3)GalNAc(b1-4)[Neu5Ac(a2-3)]Gal(b1-4)Glc
In short: as §1

[3] = biological target: Neu5Ac(a2-8)Neu5Ac(a2-3)Gal(b1-3)GalNAc(b1-4)[Neu5Ac(a2-8)Neu5Ac(a2-3)]Gal(b1-4)Glc
In short: as §1

[4] = biological target: Neu5Ac(a2-8)Neu5Ac(a2-3)Gal(b1-4)Glc
In short: as §1

[5] = biological target: Neu5Ac(a2-8)Neu5Ac(a2-3)Gal(b1-4)GlcNAc
In short: as §1

[6] = biological target: Neu5Ac(a2-8)Neu5Ac(a2-3)[Gal(b1-3)GalNAc(b1-4)]Gal(b1-4)Glc
In short: as §1

[7] = biological target: Neu5Ac(a2-8)Neu5Ac(a2-3)[GalNAc(b1-4)]Gal(b1-4)Glc
In short: as §1

[8] = biological target: Neu5Ac(a2-8)Neu5Ac(a2-8)Neu5Ac
In short: as §1

[9] = biological target: Neu5Ac(a2-8)Neu5Ac(a2-8)Neu5Ac(a2-3)Gal(b1-4)Glc
In short: as §1

[10] = biological target: Neu5Ac(a2-8)Neu5Ac(a2-8)Neu5Ac(a2-3)[Gal(b1-3)GalNAc(b1-4)]Gal(b1-4)Glc
In short: as §1

[11] = biological target: Neu5Ac(a2-8)Neu5Ac(a2-8)Neu5Ac(a2-3)[GalNAc(b1-4)]Gal(b1-4)Glc
In short: as §1

[12] = biological target: Neu5Ac(a2-8)Neu5Ac(a2-8)Neu5Ac(a2-8)Neu5Ac(a2-3)[GalNAc(b1-4)]Gal(b1-4)Glc
In short: as §1

[13] = biological target: Neu5Ac(a2-8)Neu5Gc(a2-3)Gal(b1-4)GlcNAc
In short: as §1

[14] = biological target: Neu5Ac(b2-6)Gal(b1-4)GlcNAc
In short: as §1

Neu5Ac(b2-6)GalNAc = biological target: Neu5Ac(b2-6)GalNAc
In short: as §1

[15] = biological target: Neu5Ac9Ac(a2-3)Gal(b1-3)GlcNAc
In short: as §1

[16] = biological target: Neu5Ac9Ac(a2-3)Gal(b1-4)GlcNAc
In short: as §1

[17] = biological target: Neu5Ac9Ac(a2-6)Gal(b1-4)GlcNAc
In short: as §1

[18] = biological target: Neu5Gc(a2-3)Gal(b1-3)GlcNAc
In short: as §1

[19] = biological target: Neu5Gc(a2-3)Gal(b1-3)[Fuc(a1-4)]GlcNAc
In short: as §1

Neu5Gc(a2-3)Gal(b1-4)Glc = biological target: Neu5Gc(a2-3)Gal(b1-4)Glc
In short: as §1

[20] = biological target: Neu5Gc(a2-3)Gal(b1-4)GlcNAc
In short: as §1

[21] = biological target: Neu5Gc(a2-3)Gal(b1-4)GlcNAc(b1-3)Gal(b1-4)GlcNAc(b1-2)Man(a1-3)[Neu5Gc(a2-3)Gal(b1-4)GlcNAc(b1-3)Gal(b1-4)GlcNAc(b1-2)Man(a1-6)]Man(b1-4)GlcNAc(b1-4)GlcNAc
In short: as §1

[22] = biological target: Neu5Gc(a2-3)Gal(b1-4)[Fuc(a1-3)]GlcNAc
In short: as §1

[23] = biological target: Neu5Gc(a2-6)Gal(b1-4)GlcNAc
In short: as §1

Neu5Gc(a2-6)GalNAc = biological target: Neu5Gc(a2-6)GalNAc
In short: as §1

[24] = biological target: Neu5Gc(a2-8)Neu5Ac(a2-3)Gal(b1-4)GlcNAc
In short: as §1

[25] = biological target: Neu5Gc(a2-8)Neu5Gc(a2-3)Gal(b1-4)GlcNAc
In short: as §1

[26] = biological target: Neu5Gc(a2-8)Neu5Gc(a2-3)Gal(b1-4)GlcNAc(b1-3)Gal(b1-4)GlcNAc
In short: as §1

[27] = biological target: Neu5Gc(a2-8)Neu5Gc(a2-6)Gal(b1-4)GlcNAc
In short: as §1

[28] = biological target: Neu5Gc(b2-6)Gal(b1-4)GlcNAc
In short: as §1

B1: GS13599A-bth-520-23-520 (Bacteroides thetaiotaomicron) (protein)
chain: SEDTMDRINKDHDHTTSVASRFILADVITSTAFSNASGDINTYASSYIEYEVGVDNQLYYAEVRENEPSSSSTFNNSWNGIYSSLKNARIIIDQCGEGGRDHGNDVTRGMAEVMAAYNCALIADFFGDAPCSQAALVDEKGSPVYMTPKMDTQQEIYTQIISYLDDAIANLQKEDLADVTEQDFLYAGDADKWLKFAYGLKARYTMRLINRSSNKSADYEKVLDYVSKSFTSADDQAAFDIYDSNNINPFYGFYNSRAGFGASTSLGTKLLAYNDPRANRAFFTPIVDKKRSQVAANDPSLVPAPNGSPDQSTSKYGISAFVYAKTAPTLLMSYHELMFLKAEALCRLNRDAEDALKEAVVAGLLNAENSISIAIKELGSGLNTNSSEVITETSAGKYFDDVVKAKYAANPLQETMIQKYLAMWGASGEATETYNDFRRMKGLNENFITLTNPNNSSKFPLRYPYGNSDTAANPEVKAAYGNGDYVYSEPVWWAGGSR
glycan array binding signal (z-score) [1]: -0.33
glycan array binding signal (z-score) (Neu5Ac(a2-8)Neu5Ac): -0.118
glycan array binding signal (z-score) [2]: 0.429
glycan array binding signal (z-score) [3]: 2.19
glycan array binding signal (z-score) [4]: -1.46
glycan array binding signal (z-score) [5]: -0.704
glycan array binding signal (z-score) [6]: -1.45
glycan array binding signal (z-score) [7]: 0.221
glycan array binding signal (z-score) [8]: -0.04
glycan array binding signal (z-score) [9]: 0.242
glycan array binding signal (z-score) [10]: 1.71
glycan array binding signal (z-score) [11]: -1.68
glycan array binding signal (z-score) [12]: 0.261
glycan array binding signal (z-score) [13]: -0.895
glycan array binding signal (z-score) [14]: -0.098
glycan array binding signal (z-score) (Neu5Ac(b2-6)GalNAc): -0.02
glycan array binding signal (z-score) [15]: -1.21
glycan array binding signal (z-score) [16]: -0.377
glycan array binding signal (z-score) [17]: -0.821
glycan array binding signal (z-score) [18]: -0.045
glycan array binding signal (z-score) [19]: 0.04
glycan array binding signal (z-score) (Neu5Gc(a2-3)Gal(b1-4)Glc): -1.63
glycan array binding signal (z-score) [20]: -0.966
glycan array binding signal (z-score) [21]: 2.04
glycan array binding signal (z-score) [22]: -0.275
glycan array binding signal (z-score) [23]: -0.407
glycan array binding signal (z-score) (Neu5Gc(a2-6)GalNAc): -0.635
glycan array binding signal (z-score) [24]: -0.56
glycan array binding signal (z-score) [25]: -1.13
glycan array binding signal (z-score) [26]: -0.631
glycan array binding signal (z-score) [27]: -1.24
glycan array binding signal (z-score) [28]: -0.127
